No constants are given. Whether binding was seen depends on the method and setting. Some binding calls cover weakened binding; strength is not graded here. One block for each binder: values may come before it.
Legend:
[1] = biological target: T1, human Bone Morphogenetic Protein 4 (human) (UniProt P12644); experiment: binding to BMP4 compared with hNG-Fc; assay not detailed
T1 sequence (looked up): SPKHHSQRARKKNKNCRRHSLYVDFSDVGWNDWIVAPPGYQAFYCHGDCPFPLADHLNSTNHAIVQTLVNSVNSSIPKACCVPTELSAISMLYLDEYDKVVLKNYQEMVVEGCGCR

[2] = biological target: T1, human Bone Morphogenetic Protein 4 (human); experiment: binding to BMP4 compared with hNG-Fc

binding [1]: binds
binding [2]: binds
B1: hNGΔ138-144Fc (Fc fusion, not shown: a dimerising Fc or GST)
chain: QHYLHIRPAPSDNLPLVDLIEHPDPIFDPKEKDLNETLLRSLLGGHYDPGFMATSPPEDRPGGGGGAAGGAEDLAELDQLLRQRPSGAMPSEIKGLEFSEGLAQGKKQRLLQMWLWSQTFCPVLYAWNDLGSRFWPRYVKVGSCFSKRSCSVPEGMVCKPSKSVHLTVLRWRCQRRGGQRCGWIPIQYPIISECKCSC

binding [1]: binds
B2: citraconyl-hNG (ligand)
chain: QHYLHIRPAPSDNLPLVDLIEHPDPIFDPKEKDLNETLLRSLLGGHYDPGFMATSPPEDRPGGGGGAAGGAEDLAELDQLLRQRPSGAMPSEIKGLEFSEGLAQGKKQRLSKKLRRKLQMWLWSQTFCPVLYAWNDLGSRFWPRYVKVGSCFSKRSCSVPEGMVCKPSKSVHLTVLRWRCQRRGGQRCGWIPIQYPIISECKCSC
modifications: citraconyl groups (chemically modified; residues not stated)

Reference: patent US20030129703A1 (Regeneron, published 2003)
